Data from PubChem BioAssay AID1347423 (Functional Genomics Laboratory (NCATS/FGL), 2020).
About 210 (0.4%) of roughly 52,000 sequences were called active.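 Rule for the calls: active = gene whose silencing raises cell survival under the drug, median off-target-corrected z-score across its silencing RNAs 2 or more; inactive = the rest.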 This is one part of the list.

Assay: Resistance to Poly (ADP-Ribose) Polymerase inhibitor: Gene Identification via Genome-wide siRNA Screen
Conditions: mouse BRCA2 R2336H ES cells, olaparib, CellTiter-Glo viability; active compounds read high
Outline: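 Mouse BRCA2 R2336H ES cells were reverse-transfected with siRNA (20 nM final), treated at 48 h with 500 nM olaparib, and read by CellTiter-Glo after 72 h. Scores: MAD-based z per siRNA, median per gene, seed off-target correction.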
For GGAACUACUACUCACCUAUTT against Trhr, the z-score was inactive: -2.12. With CCCGAAGUCCUGUUUUGCATT against Olig3 the z-score was inactive: 1.89. For GGAAAACGGAAAAGACAUCTT against Calr3, the z-score was inactive: 0.37. With GCCACGAUGUGUGGAAAUUTT against Cfh the z-score was inactive: -1.72. In the case of GGCAGAAGAUUGCUUCAGATT against Gm424, the z-score is reported as inactive: 0.232. For GGACAAGAAGCCACUGACATT against Arrb1, the z-score was inactive: 1. In the case of GGUUUUUCUUCUGCUGGUGTT against Olfr1256, the z-score is reported as inactive: 1.52. With GAUGGCUUGUGAAAUACCATT against Hat1 the z-score was inactive: -0.776. In the case of GGUUGCCAAUGACACUCGGTT against Als2cr3, the z-score is reported as inactive: 1.76. In the case of GGAUCGUAGAACACCCUUCTT against Robo2, the z-score is reported as inactive: 0.615. In the case of GGGUCAGUUUUUACAUUUUTT against Cxcl14, the z-score is reported as inactive: -0.976. In the case of GGUACAGUUACGGUCAAAUTT against MGC67168, the z-score is reported as inactive: 0.645. In the case of GGCAAACAUCUGUAUCUAUTT against Golph3, the z-score is reported as inactive: 0.326. With “GGCGGAAGCCAUCUAACUUTT against 9330140K16Rik” the z-score was inactive: 1.02. For CCUCUAGUUGUCCCUGAAATT against F12, the z-score was inactive: 0.18. For CCACUUCUACAUACUUAAUTT against Plau, the z-score was inactive: 0.625. In the case of GCUCUCAGAUGACAUCACUTT against Supt5h, the z-score is reported as inactive: -1.98. In the case of GCCACACAGUGUGAUCCAATT against Nrip2, the z-score is reported as inactive: -1.71. In the case of CGGGCAAUGUCAGAUUGUGTT against V1rg6, the z-score is reported as inactive: -2.98. For CGCCUUGCCAAUAAGUGAATT against Ostf1, the z-score was inactive: -0.236. For “GGCUUUGAGAGUUUGUCACTT against 2410004B18Rik”, the z-score was inactive: 1.29. For GGUCUCUGUACUUUGACUGTT against Cldn19, the z-score was inactive: 1.26. In the case of “GGAAAAUGUUUUACCAAUGTT against 4930470D19Rik”, the z-score is reported as inactive: 0.0823. In the case of “GGACCUUUUUAUCCAACGCTT against 2400002F11Rik”, the z-score is reported as inactive: 0.528. In the case of GGAGCUGCUAUGUACACAUTT against Falz, the z-score is reported as inactive: -0.193. In the case of GGCAUUGAGAUGCUGGAAATT against Trappc4, the z-score is reported as inactive: 1.54. For GGAGGUAUCAGGUACCAACTT against Cpne6, the z-score was inactive: -1.36. In the case of CCAGUUUAAGAGGAUUAUCTT against Ttc3, the z-score is reported as inactive: 0.276. In the case of GCAUAUGAUGGUCCUUACCTT against Cox6b, the z-score is reported as inactive: -0.818. For GGUCAUUCUCCAAGAACUATT against Ugp2, the z-score was inactive: -0.689. In the case of GGUGCAGUUCAGCAACAAGTT against Mat2b, the z-score is reported as inactive: 2.14. For GCAAUAGGCCUCUUAAUUATT against Sirt1, the z-score was inactive: 1.55. For CGGGAAGAGUAUCACUUACTT against Elac2, the z-score was inactive: 0.995. For GGUGGUGUUUCAUAAGAUGTT against Rragc, the z-score was inactive: 0.792. For GGAGAACUCCAGGUUGGCATT against Eaf1, the z-score was inactive: -0.154. In the case of GCUGUUUCCCAGAGAAGAATT against Defb2, the z-score is reported as inactive: 0.265. For “GGAUGUUGUUCGAUUUGGATT against 1200002M06Rik”, the z-score was inactive: -1.12. For “GGAGAUGAUAAAGAUUAACTT against 3930401K13Rik”, the z-score was inactive: -0.205. With “GGGCGGAGCAUUUUUCUUGTT against 1700013N18Rik” the z-score was inactive: -1.11. For “GGCCAUCCAUUGAAGACAUTT against 4930509O22”, the z-score was inactive: 0.519. In the case of “CCCACUUCCGAUCCAAAGATT against 3110024A21Rik”, the z-score is reported as inactive: -0.44. In the case of GGCUACGUAGGACAUGACUTT against Vmd2l3, the z-score is reported as inactive: 1.68. With GGAAUUCAUACAGGAACUUTT against Mst1r the z-score was inactive: 0.44. In the case of GGAAAAACUGAAACAGUUUTT against Eif3s10, the z-score is reported as inactive: 0.338. In the case of CGAAAACGUACAAGAUGAATT against Nap1l4, the z-score is reported as inactive: 0.845. In the case of GGUUGGAUUAUUAGGAAUUTT against Dnahc5, the z-score is reported as inactive: -0.742. In the case of CCUUUUGAUAGAGAAGAGCTT against Olfr1426, the z-score is reported as inactive: 0.651. In the case of GCAGAAAAACAUCCACGACTT against Spn, the z-score is reported as inactive: 0.955. With GGAGUGAAAUUUCUGUAAUTT against Olfr796 the z-score was inactive: -0.0224. In the case of “GGUUCUUUUGGUCUUCGUGTT against 1810020G14Rik”, the z-score is reported as inactive: 0.106. With GGAUUGUCGAAUGGGUGCUTT against AI314976 the z-score was inactive: -0.0925. In the case of GGUACCUCUGUAUUCAGCCTT against Olfr121, the z-score is reported as inactive: -0.261. For GCCAACAUGUGUUUGUGUGTT against Krtap9-1, the z-score was inactive: -0.702. In the case of CCUGGUACUGAUUACUCCATT against LOC384806, the z-score is reported as inactive: 0.324. In the case of GCUUAGUUUAUGAGAAUGCTT against Ptprh, the z-score is reported as inactive: 0.566. For GGAAAGAAAUAGUUAAGGGTT against Zfp239, the z-score was inactive: 0.635. In the case of “GCCAUAAAAGCCUCAUUAGTT against C130021I20”, the z-score is reported as inactive: 1.3. In the case of GCAGCAAGACCUACGAAGATT against Sel1h, the z-score is reported as inactive: -0.2. In the case of GGAGGAGCGUACUAUUUAATT against Slc12a2, the z-score is reported as inactive: 0.378. With GGACAAGAGUGAGAAGGAATT against Yaf2 the z-score was inactive: -1.43. In the case of GCGAUAUCUCAACUUCCCGTT against Fchsd1, the z-score is reported as inactive: 0.271. For GGAGCCUCACUGAAUGUCUTT against Ankrd10, the z-score was inactive: -2.27. For “GGAUAAAAAUCACCCACUGTT against 4932416F07Rik”, the z-score was inactive: -0.0284. For “GCGAGAAAGAAUUUAACCUTT against 1200013B08Rik”, the z-score was inactive: 0.3. In the case of GCGCAACUGUGUCCUGUUATT against Olfr133, the z-score is reported as inactive: -1.71. For GAAUGUGUUAUUCCCAAAATT against Olfr784, the z-score was inactive: 0.215. For ACUGUUAACCAAGGAGAAATT against Ghrhr, the z-score was inactive: -0.514.
